At least one read-out could not be matched to a standard name with certainty.
Test: Stability study: percent recovery of apomorphine by HPLC, in dry HEC-CARBOPOL films versus water
Details: control: 100 ug/niL solution in Milli-Q filtered water, 25° and 40° C.

CN1CCc2cccc3c2[C@H]1Cc1ccc(O)c(O)c1-3.Cl [apomorphine, apomorphine hydrochloride hemihydrate]
Stability (recovery of drug originally present): highly unstable

Reference: patent US20070225632A1, “HYDRATABLE POLYMERIC ESTER MATRIX FOR DRUG ELECTROTRANSPORT” (priority 2006, published 2007)
